From paper PMC5736654
Results are given in words; binding and its absence hold for the method and conditions named. Binding seen in cells or lysates may run through a third protein. Some entries that bind do so weakly or less than the wild type.

Amino acid sequences for entries named in this document (tags omitted).
UniProt Q12809: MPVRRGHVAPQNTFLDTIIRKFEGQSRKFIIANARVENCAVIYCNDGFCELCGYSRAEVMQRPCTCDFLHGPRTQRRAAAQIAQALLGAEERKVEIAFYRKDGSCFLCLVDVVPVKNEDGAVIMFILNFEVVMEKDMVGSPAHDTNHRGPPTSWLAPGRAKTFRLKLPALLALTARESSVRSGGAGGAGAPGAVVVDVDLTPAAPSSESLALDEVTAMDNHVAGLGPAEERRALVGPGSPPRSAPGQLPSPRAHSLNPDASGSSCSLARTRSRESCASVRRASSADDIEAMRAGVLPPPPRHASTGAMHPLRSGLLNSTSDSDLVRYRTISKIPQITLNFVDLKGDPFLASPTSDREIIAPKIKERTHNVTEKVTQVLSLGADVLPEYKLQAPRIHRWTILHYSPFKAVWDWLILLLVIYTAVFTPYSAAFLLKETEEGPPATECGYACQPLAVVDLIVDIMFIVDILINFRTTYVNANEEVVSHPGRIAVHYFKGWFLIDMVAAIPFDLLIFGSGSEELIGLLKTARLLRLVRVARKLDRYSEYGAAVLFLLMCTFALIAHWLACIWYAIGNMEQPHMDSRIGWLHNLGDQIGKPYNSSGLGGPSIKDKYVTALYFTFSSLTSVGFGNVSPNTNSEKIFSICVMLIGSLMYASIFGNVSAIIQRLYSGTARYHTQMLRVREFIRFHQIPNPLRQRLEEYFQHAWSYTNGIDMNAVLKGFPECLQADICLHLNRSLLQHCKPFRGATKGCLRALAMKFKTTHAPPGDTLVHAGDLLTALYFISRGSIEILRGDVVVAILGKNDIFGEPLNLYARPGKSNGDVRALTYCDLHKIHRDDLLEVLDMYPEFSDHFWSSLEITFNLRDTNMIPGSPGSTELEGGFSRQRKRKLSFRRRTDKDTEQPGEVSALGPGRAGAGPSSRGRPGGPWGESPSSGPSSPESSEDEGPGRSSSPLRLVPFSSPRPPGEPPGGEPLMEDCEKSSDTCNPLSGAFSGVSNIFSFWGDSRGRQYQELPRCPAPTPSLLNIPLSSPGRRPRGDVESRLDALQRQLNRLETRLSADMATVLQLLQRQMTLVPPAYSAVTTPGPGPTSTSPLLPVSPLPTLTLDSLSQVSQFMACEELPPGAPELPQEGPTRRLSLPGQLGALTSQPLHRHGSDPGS

B1: Kv4.3 (α subunit of Ito, KCND3) (protein, UniProt Q9UK17 1-655)
chain: MAAGVAAWLPFARAAAIGWMPVANCPMPLAPADKNKRQDELIVLNVSGRRFQTWRTTLERYPDTLLGSTEKEFFFNEDTKEYFFDRDPEVFRCVLNFYRTGKLHYPRYECISAYDDELAFYGILPEIIGDCCYEEYKDRKRENAERLMDDNDSENNQESMPSLSFRQTMWRAFENPHTSTLALVFYYVTGFFIAVSVITNVVETVPCGTVPGSKELPCGERYSVAFFCLDTACVMIFTVEYLLRLFAAPSRYRFIRSVMSIIDVVAIMPYYIGLVMTNNEDVSGAFVTLRVFRVFRIFKFSRHSQGLRILGYTLKSCASELGFLLFSLTMAIIIFATVMFYAEKGSSASKFTSIPASFWYTIVTMTTLGYGDMVPKTIAGKIFGSICSLSGVLVIALPVPVIVSNFSRIYHQNQRADKRRAQKKARLARIRVAKTGSSNAYLHSKRNGLLNEALELTGTPEEEHMGKTTSLIESQHHHLLHCLEKTTGLSYLVDDPLLSVRTSTIKNHEFIDEQMFEQNCMESSMQNYPSTRSPSLSSHPGLTTTCCSRRSKKTTHLPNSNLPATRLRSMQELSTIHIQGSEQPSLTTSRSSLNLKADDGLRPNCKTSQITTAIISIPTPPALTPEGESRPPPASPGPNTNIPSIASNVVKVSAL

What was measured:
[1] = target: T1, Kv4.3 (α subunit of Ito, KCND3) (human) (UniProt Q9UK17); experiment: co-IP; whole-cell lysate (0.5 mg) of HEK293T cells co-transfected with hERG and Kv4.3, also with Hsp70 siRNA; primary antibody overnight at 4 °C, protein A/G plus agarose beads 4 h at 4 °C, washed with RIPA lysis buffer, Western blot
T1 sequence: B1 chain

[2] = target: hERG (α subunit of IKr, encoded by the human ether a-go-go-related gene) (human) (UniProt Q12809); experiment: as above

Molecule	binding [1]	binding [2]
hERG, core-glycosylated immature form (135 kDa) (from UniProt Q12809 1-1159)	binds	
hERG, fully glycosylated mature form (155 kDa) (from UniProt Q12809 1-1159)	binds	
B1		binds
